Some of the results follow.

Protein sequences, listed by entry. Tags and fused reporters are not part of them. Lines headed by an entry give the natural chain unless they say otherwise; changes in a name come on top.
UniProt Q8N392: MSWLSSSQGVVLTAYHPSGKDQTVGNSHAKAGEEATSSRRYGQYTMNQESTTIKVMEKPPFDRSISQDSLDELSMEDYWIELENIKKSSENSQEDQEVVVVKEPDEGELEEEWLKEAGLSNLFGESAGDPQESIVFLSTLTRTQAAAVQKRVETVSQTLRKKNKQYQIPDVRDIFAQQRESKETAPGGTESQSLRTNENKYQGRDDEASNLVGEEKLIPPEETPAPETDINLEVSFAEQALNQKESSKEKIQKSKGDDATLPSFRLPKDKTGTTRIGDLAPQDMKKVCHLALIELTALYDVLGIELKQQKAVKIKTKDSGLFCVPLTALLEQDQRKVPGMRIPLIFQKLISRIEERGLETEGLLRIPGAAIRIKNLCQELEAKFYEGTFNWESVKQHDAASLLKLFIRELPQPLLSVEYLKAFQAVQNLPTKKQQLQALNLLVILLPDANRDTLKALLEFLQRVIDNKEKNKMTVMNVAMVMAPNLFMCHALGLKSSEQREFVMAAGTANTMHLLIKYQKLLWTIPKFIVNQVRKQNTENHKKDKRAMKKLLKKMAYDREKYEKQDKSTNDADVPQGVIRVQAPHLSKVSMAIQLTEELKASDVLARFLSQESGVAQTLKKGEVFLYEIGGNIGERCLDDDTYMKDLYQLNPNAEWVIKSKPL
UniProt O60306: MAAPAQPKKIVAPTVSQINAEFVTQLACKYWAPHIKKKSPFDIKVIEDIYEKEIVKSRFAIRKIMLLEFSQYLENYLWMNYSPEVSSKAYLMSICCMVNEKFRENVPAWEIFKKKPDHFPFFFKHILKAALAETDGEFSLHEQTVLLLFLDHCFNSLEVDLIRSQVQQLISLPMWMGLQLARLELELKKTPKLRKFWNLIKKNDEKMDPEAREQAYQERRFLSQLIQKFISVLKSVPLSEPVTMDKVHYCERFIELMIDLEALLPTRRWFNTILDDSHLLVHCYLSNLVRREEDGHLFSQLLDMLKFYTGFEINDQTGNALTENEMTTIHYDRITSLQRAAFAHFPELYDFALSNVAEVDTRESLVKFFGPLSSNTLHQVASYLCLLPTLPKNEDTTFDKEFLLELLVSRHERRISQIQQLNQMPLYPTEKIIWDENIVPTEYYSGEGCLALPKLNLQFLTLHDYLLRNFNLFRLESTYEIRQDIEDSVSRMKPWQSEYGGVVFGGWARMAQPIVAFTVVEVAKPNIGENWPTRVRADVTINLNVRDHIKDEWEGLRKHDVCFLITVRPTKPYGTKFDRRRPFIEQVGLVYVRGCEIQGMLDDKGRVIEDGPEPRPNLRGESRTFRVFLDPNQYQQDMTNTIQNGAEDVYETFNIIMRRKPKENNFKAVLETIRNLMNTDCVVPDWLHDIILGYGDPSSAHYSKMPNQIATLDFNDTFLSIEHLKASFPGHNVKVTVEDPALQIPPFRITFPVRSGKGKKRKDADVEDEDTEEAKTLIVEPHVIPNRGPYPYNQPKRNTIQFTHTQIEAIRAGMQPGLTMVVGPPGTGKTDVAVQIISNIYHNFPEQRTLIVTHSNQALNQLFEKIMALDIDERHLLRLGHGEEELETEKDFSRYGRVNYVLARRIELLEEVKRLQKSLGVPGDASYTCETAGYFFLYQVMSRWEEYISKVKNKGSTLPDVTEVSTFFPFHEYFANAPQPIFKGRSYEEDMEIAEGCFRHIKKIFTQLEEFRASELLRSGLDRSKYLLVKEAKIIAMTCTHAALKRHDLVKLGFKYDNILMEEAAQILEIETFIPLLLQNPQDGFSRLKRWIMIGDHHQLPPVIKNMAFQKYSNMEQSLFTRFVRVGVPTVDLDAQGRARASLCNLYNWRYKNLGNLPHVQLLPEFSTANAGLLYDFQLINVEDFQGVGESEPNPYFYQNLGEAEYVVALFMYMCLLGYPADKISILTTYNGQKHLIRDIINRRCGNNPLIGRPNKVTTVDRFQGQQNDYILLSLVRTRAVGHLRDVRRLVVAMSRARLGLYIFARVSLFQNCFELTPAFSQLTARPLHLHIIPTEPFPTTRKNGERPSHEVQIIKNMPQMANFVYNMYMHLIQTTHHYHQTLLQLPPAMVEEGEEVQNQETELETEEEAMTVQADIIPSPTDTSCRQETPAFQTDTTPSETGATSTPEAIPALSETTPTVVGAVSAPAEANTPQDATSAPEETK
UniProt P15144: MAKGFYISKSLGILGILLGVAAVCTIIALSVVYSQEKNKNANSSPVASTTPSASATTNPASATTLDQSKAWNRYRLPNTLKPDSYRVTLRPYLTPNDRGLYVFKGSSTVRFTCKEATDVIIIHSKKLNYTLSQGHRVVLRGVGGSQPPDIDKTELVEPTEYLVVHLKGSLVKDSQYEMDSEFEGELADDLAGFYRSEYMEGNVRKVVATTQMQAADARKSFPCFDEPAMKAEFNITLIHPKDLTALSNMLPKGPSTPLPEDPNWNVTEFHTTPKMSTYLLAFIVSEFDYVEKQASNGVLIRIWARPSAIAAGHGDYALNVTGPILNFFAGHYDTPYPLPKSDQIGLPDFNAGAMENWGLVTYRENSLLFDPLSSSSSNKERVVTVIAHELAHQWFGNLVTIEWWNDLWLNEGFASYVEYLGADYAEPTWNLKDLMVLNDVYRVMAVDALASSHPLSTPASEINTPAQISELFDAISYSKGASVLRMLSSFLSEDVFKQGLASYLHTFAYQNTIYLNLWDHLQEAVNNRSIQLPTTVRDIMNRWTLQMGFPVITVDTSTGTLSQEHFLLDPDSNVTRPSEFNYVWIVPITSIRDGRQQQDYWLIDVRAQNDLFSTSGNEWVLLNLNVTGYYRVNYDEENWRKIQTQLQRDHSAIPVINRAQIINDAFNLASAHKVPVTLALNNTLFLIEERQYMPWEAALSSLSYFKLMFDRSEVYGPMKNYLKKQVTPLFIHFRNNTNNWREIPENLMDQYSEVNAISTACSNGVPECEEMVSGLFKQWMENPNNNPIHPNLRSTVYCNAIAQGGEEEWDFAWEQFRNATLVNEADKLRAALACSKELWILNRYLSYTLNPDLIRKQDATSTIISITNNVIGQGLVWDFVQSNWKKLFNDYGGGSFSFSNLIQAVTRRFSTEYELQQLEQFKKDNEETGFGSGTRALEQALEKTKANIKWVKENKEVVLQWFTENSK
UniProt P58335, whole entry, looked up: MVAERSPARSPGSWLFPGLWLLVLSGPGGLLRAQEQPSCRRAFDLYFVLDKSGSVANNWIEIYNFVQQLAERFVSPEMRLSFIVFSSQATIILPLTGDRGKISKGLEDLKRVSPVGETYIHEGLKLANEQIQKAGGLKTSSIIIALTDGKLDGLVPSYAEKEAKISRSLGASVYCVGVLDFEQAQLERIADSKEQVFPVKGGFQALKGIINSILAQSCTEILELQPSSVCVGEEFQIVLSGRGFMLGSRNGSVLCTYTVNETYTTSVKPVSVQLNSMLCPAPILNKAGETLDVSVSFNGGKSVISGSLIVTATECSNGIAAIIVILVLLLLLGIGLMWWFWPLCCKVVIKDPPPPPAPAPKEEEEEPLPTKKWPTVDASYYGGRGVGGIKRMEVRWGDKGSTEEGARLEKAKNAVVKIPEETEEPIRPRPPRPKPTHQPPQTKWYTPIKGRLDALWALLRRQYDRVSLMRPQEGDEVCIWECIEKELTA
UniProt Q9UJX3, whole entry, looked up: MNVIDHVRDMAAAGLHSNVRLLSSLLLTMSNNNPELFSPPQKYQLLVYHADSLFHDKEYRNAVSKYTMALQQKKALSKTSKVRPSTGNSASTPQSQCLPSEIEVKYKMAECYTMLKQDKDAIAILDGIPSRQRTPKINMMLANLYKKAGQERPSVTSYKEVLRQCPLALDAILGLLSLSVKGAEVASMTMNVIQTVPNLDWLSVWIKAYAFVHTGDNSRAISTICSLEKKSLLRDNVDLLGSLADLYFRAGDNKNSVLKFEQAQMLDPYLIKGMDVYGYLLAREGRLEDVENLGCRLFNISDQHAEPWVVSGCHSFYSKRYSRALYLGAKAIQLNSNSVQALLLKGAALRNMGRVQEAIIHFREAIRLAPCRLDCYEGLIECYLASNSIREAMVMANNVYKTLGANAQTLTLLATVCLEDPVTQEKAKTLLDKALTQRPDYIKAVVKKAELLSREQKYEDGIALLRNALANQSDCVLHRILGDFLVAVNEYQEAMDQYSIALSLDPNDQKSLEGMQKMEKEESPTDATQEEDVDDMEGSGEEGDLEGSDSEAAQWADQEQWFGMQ
UniProt Q9NP61: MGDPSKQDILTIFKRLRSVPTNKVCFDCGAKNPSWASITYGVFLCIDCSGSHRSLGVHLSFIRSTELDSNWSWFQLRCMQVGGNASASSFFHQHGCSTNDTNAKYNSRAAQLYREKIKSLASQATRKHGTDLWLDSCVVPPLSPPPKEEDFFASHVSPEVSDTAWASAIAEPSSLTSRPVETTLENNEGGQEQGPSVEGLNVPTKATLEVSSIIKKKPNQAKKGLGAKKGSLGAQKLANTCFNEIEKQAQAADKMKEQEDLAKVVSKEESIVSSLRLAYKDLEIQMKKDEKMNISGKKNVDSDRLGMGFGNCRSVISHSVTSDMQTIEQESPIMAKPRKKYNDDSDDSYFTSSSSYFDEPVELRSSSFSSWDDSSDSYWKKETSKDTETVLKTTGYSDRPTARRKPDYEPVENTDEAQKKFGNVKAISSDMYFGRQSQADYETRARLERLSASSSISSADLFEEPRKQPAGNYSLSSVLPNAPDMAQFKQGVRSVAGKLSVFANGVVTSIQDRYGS
UniProt P13798: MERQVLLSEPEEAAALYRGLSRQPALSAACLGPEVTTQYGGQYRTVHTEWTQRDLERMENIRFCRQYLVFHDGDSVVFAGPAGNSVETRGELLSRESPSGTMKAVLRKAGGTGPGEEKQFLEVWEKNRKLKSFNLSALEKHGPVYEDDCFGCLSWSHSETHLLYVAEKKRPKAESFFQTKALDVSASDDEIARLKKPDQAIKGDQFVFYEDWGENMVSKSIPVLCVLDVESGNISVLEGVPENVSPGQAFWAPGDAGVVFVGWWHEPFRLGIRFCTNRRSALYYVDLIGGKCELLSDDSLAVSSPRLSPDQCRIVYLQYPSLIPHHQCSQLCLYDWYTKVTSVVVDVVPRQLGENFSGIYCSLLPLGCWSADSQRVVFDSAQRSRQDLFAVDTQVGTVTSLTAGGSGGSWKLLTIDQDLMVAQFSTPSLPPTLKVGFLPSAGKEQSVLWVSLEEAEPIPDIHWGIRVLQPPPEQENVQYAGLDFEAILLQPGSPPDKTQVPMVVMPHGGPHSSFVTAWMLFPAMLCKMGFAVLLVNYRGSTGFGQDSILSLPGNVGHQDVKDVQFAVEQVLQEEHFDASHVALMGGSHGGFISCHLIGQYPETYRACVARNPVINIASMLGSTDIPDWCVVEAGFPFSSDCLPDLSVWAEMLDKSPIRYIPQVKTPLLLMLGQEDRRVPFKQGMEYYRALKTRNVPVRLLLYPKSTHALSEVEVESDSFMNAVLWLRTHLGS
UniProt Q8NB46: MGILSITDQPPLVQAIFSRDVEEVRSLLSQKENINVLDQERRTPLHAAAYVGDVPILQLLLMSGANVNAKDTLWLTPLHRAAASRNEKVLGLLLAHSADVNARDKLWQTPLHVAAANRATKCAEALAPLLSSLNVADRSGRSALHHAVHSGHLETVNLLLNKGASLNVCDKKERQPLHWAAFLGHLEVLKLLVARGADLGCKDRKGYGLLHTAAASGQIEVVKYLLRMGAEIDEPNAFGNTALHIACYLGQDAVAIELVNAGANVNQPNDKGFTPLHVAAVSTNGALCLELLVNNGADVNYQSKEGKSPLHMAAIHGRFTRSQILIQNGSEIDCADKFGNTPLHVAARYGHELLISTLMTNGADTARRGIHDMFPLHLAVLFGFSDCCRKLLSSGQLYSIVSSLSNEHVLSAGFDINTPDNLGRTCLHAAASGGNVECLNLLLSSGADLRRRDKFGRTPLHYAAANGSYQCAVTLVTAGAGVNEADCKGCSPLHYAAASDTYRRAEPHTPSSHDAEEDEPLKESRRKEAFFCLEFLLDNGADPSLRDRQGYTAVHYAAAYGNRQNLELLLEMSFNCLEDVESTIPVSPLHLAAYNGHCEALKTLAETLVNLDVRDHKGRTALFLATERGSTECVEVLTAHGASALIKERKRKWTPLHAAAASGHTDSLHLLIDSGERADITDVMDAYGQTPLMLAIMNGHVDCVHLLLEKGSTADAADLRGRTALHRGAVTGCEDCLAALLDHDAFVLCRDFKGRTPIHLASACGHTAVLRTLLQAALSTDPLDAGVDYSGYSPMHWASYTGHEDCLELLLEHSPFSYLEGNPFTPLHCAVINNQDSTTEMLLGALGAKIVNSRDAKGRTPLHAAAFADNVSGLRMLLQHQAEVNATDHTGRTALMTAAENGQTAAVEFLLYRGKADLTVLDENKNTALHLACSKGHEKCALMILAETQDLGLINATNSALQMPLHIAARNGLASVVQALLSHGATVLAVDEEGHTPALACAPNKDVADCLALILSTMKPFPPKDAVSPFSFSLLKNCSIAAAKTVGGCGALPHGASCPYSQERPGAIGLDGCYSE

Consider 34 targets from the supplement of paper PMC10849652.

Compound in one assay: C1CCN(C1)C(=O)NC2=CC=CC(=C2)NC3=NC=C(C(=N3)NCCC4=CN=CN4)Br
Kind of assay: log2 fold change, soluble protein after heating vs DMSO (PISA); higher = thermal stabilisation; K562 cells, 10 uM, 30 min; active = over 0.2 and 3.5 SD of the protein, either way, in both replicates (recomputed). The method, boiled down: (§1)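 K562 cells at 2×10^6 cells/mL were treated with 10 μM compound for 30 min. Aliquots were heated for 3 min across 48°C-58°C, pooled, and extracted in PBS with 0.5% NP-40 at 4°C; soluble protein was the supernatant after 21,000xg for 90 min. Soluble protein was quantified by TMTpro 16plex LC-MS/MS with channel sums equalised, and reported as log2 fold change in thermal stability against DMSO controls, with values from duplicates.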
As to ARHGAP35 (UniProt Q9NRY4), the log2 fold change is inactive: -0.044.

APOL2 (UniProt J3KQL8): the log2 fold change was inactive: -0.041.

Take ARHGAP18 (UniProt Q8N392): the log2 fold change was inactive: -0.072.

Consider ARHGAP17 (UniProt Q68EM7), for which the log2 fold change was inactive: 0.027.

As to AP1B1 (UniProt Q10567), the log2 fold change is inactive: -0.05.

Turning to AP4B1 (UniProt Q9Y6B7), the log2 fold change is inactive: -0.097.

As for ARFRP1 (UniProt Q13795), the log2 fold change is inactive: -0.013.

Consider APOBEC3C (UniProt Q9NRW3), for which the log2 fold change is inactive: 0.11.

Turning to ANO6 isoform 2 (UniProt Q4KMQ2), the log2 fold change was inactive: -0.008.

Consider ANK2 (UniProt Q01484), for which the log2 fold change is inactive: -0.126.

Consider ANXA7 (UniProt P20073), for which the log2 fold change was inactive: 0.007.

With AQR (UniProt O60306), the log2 fold change is inactive: 0.013.

As for ANPEP (UniProt P15144), the log2 fold change is inactive: -0.01.

Regarding ARHGAP25 isoform 4 (UniProt P42331), the log2 fold change was inactive: 0.052.

As to AP1M1 (UniProt Q9BXS5), the log2 fold change is inactive: -0.033.

As to ARHGEF12 (UniProt Q9NZN5), the log2 fold change was inactive: -0.017.

For ARG2 (UniProt P78540), the log2 fold change was inactive: 0.091.

With APC (UniProt P25054), the log2 fold change was inactive: -0.061.

For the target APPL1 (UniProt Q9UKG1), the log2 fold change is inactive: 0.014.

With ANTXR2 isoform 4 (UniProt P58335), the log2 fold change is inactive: -0.017.

Regarding ANAPC7 (UniProt Q9UJX3), the log2 fold change was inactive: -0.013.

Regarding ARFGAP1 (UniProt Q8N6T3), the log2 fold change was inactive: -0.037.

For the target ARHGEF7 isoform 5 (UniProt Q14155), the log2 fold change was inactive: -0.057.

Consider ARFGAP3 (UniProt Q9NP61), for which the log2 fold change was inactive: -0.011.

As to ANP32E (UniProt Q9BTT0), the log2 fold change was inactive: -0.026.

On to ARHGAP4 isoform 2 (UniProt P98171), for which the log2 fold change was inactive: -0.117.

AP3M1 (UniProt Q9Y2T2): the log2 fold change is inactive: -0.045.

As to APH1A (UniProt Q96BI3), the log2 fold change was inactive: -0.188.

Take APIP (UniProt Q96GX9): the log2 fold change is inactive: 0.006.

On to APEH (UniProt P13798), for which the log2 fold change was inactive: 0.004.

Regarding APOH (UniProt P02749), the log2 fold change is inactive: 0.188.

On to ANKRD52 (UniProt Q8NB46), for which the log2 fold change is inactive: -0.082.

With ANP32A (UniProt P39687), the log2 fold change is inactive: 0.017.

ARCN1 (UniProt P48444): the log2 fold change was inactive: -0.04.

Compound in another assay: C1CN(CCC1(CC2=CC=C(C=C2)Cl)N)C3=NC=NC4=C3C=CN4
The assay is described as above. The essentials: as §1
On to ARHGAP35 (UniProt Q9NRY4), for which the log2 fold change was inactive: 0.07.

On to APOL2 (UniProt J3KQL8), for which the log2 fold change was inactive: 0.097.

As to ARHGAP18 (UniProt Q8N392), the log2 fold change is inactive: -0.171.

As for ARHGAP17 (UniProt Q68EM7), the log2 fold change is inactive: -0.157.

For AP1B1 (UniProt Q10567), the log2 fold change was inactive: 0.

Turning to AP4B1 (UniProt Q9Y6B7), the log2 fold change is inactive: 0.164.

ARFRP1 (UniProt Q13795): the log2 fold change is inactive: 0.032.

As for APOBEC3C (UniProt Q9NRW3), the log2 fold change is inactive: -0.121.

As for ANO6 isoform 2 (UniProt Q4KMQ2), the log2 fold change is inactive: 0.092.

For the target ANK2 (UniProt Q01484), the log2 fold change was inactive: -0.131.

On to ANXA7 (UniProt P20073), for which the log2 fold change is inactive: -0.036.

Consider AQR (UniProt O60306), for which the log2 fold change is inactive: -0.053.

As for ANPEP (UniProt P15144), the log2 fold change was inactive: -0.064.

On to ARHGAP25 isoform 4 (UniProt P42331), for which the log2 fold change was inactive: -0.147.

In the case of AP1M1 (UniProt Q9BXS5), the log2 fold change was inactive: 0.032.

As to ARHGEF12 (UniProt Q9NZN5), the log2 fold change was inactive: -0.109.

As to ARG2 (UniProt P78540), the log2 fold change was inactive: 0.054.

APC (UniProt P25054): the log2 fold change was inactive: 0.122.

As to APPL1 (UniProt Q9UKG1), the log2 fold change is inactive: 0.003.

Take ANTXR2 isoform 4 (UniProt P58335): the log2 fold change was inactive: 0.038.

On to ANAPC7 (UniProt Q9UJX3), for which the log2 fold change was inactive: -0.031.

As for ARFGAP1 (UniProt Q8N6T3), the log2 fold change was inactive: 0.001.

In the case of ARHGEF7 isoform 5 (UniProt Q14155), the log2 fold change was inactive: 0.023.

Consider ARFGAP3 (UniProt Q9NP61), for which the log2 fold change is inactive: 0.093.

With ANP32E (UniProt Q9BTT0), the log2 fold change is inactive: -0.084.

With ARHGAP4 isoform 2 (UniProt P98171), the log2 fold change is inactive: 0.015.

Regarding AP3M1 (UniProt Q9Y2T2), the log2 fold change was inactive: -0.035.

For the target APH1A (UniProt Q96BI3), the log2 fold change was inactive: 0.071.

For the target APIP (UniProt Q96GX9), the log2 fold change is inactive: 0.046.

As for APEH (UniProt P13798), the log2 fold change is inactive: 0.035.

For the target APOH (UniProt P02749), the log2 fold change was inactive: 0.09.

For ANKRD52 (UniProt Q8NB46), the log2 fold change was inactive: 0.125.

Regarding ANP32A (UniProt P39687), the log2 fold change was inactive: 0.038.

As for ARCN1 (UniProt P48444), the log2 fold change was inactive: 0.028.
